From PMC7819943, “Rice protein-binding microarrays: a tool to detect cis-acting elements near promoter regions in rice”
Some of the results follow.

Amino acid sequences for entries named in this document (tags omitted).
UniProt Q0JBA9, entry or part of it: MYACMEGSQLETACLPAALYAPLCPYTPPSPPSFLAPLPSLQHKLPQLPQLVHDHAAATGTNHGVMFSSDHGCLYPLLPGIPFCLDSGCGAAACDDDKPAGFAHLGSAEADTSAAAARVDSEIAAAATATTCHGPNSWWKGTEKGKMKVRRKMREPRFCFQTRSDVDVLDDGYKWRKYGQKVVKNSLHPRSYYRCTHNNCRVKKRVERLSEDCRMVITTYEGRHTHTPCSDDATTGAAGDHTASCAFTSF

Target: OsWRKY34 (Oryza sativa, UniProt Q0JBA9 1-250)
Assay: protein-binding microarray (RPBM); PBS, 2% BSA, 51.3 ng/ul salmon testes DNA, 50 uM zinc acetate, 200 nM TF, 25 C, 1 h; high values mean tight binding
Settings: protein: recombinant; tags: N-terminal polyhistidine and DsRed monomer fusion (pET32a); label: CyDye5-dUTP incorporated in the synthesized complementary strand; 3' TTTTT single-stranded linker to array surface; dsDNA, one strand shown
Procedure, shortened: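 Binding signal here means per-feature fluorescence intensity in arbitrary units. The values were read on an Axon 4000B scanner after a custom Agilent array, double-stranded by primer extension with Cy5-dUTP, was incubated with 200 nM protein at 25 °C for 1 h in PBS with 2% BSA, salmon testes DNA and 50 µM zinc acetate, then washed. The proteins were transcription factors with an N-terminal polyhistidine tag and DsRed, expressed in E. coli BL21-CodonPlus and purified on Ni–NTA.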

Row | Sequence | binding signal
1 | TTTTGCTTTACACTTTATTTGCTTGCATCTTCATTTTTTTCGGAGTCACCTAGTGCAG | 10600 fluorescence intensity (a.u.)
2 | CGCTGAGTACGGTGGTTGTACTCAGTCTTGCTCTATTTTTCGGAGTCACCTAGTGCAG | 8410 fluorescence intensity (a.u.)
3 | CACACCACAAGCGCACGACACACGTCACACACAAACCAACCGGAGTCACCTAGTGCAG | 8960 fluorescence intensity (a.u.)
4 | AACTCCTACTCTACTGTACTCACAGTTGCACGGCTCAGAACGGAGTCACCTAGTGCAG | 9340 fluorescence intensity (a.u.)
5 | TGGGTCCCACCTGTCATCGTCACTCCTCATTTCCTCCTCTCGGAGTCACCTAGTGCAG | 9670 fluorescence intensity (a.u.)
6 | TTGTAGTAGTGAGGGATGCATTTGGTCAATTGATTTACACCGGAGTCACCTAGTGCAG | 9020 fluorescence intensity (a.u.)
7 | AACCATCCATTGCATGCTTGCTTCCATCTGATCTTCTTCTCGGAGTCACCTAGTGCAG | 8970 fluorescence intensity (a.u.)
8 | CAAAACCTACTCTTTTTTTTTTTTTTGCGTCGAGTTTTCACGGAGTCACCTAGTGCAG | 12600 fluorescence intensity (a.u.)
9 | ACTCATTTATCTTTTTTTTCTGTTTTTCTTCTTGTAGCAACGGAGTCACCTAGTGCAG | 10400 fluorescence intensity (a.u.)
10 | ATGTGGATTTGGGGTTCAATTTGACGATATGCATACCACTCGGAGTCACCTAGTGCAG | 8390 fluorescence intensity (a.u.)
11 | TTCCTTGCATTGGTGGTTGGTAGGATAGATAATTGAGTATCGGAGTCACCTAGTGCAG | 8060 fluorescence intensity (a.u.)
12 | TAGATTCTCTTTCTATTTTCTTTCCACTTAGCTTAGATATCGGAGTCACCTAGTGCAG | 9100 fluorescence intensity (a.u.)
13 | ACTAGTCATTTCGTCATGCTACATATGCTACCCTGATGCTCGGAGTCACCTAGTGCAG | 8180 fluorescence intensity (a.u.)
14 | ATAATAAGCCACTTCTTTCTTATGTGTTTCAATTCTCTTGCGGAGTCACCTAGTGCAG | 8600 fluorescence intensity (a.u.)
15 | CCACCGCCGCCGCCGCCCACCCGTGCCCGCGCTCCACCAGCGGAGTCACCTAGTGCAG | 11100 fluorescence intensity (a.u.)
16 | CCTTTATTTTTTCTGTCTATCTCTCTCTCTCTTTTCTTTTCGGAGTCACCTAGTGCAG | 12100 fluorescence intensity (a.u.)
17 | GAATCACTTCCTACTCAACCTATTATCTACTCCTTCTAGCCGGAGTCACCTAGTGCAG | 10600 fluorescence intensity (a.u.)
18 | ATTTTCACTGTCTCATATCAAATATTTGGATACATGTATACGGAGTCACCTAGTGCAG | 8510 fluorescence intensity (a.u.)
19 | CGTCTGGCCCTCATTTGGTCCTGTTATTTTGGTAAAGCCCCGGAGTCACCTAGTGCAG | 9060 fluorescence intensity (a.u.)
20 | CAAAATTAACTTGCGCGCCACTCTGCCTCTCAACCCTTCACGGAGTCACCTAGTGCAG | 9350 fluorescence intensity (a.u.)
21 | CCATTTTGACTTCGCAATTATGTGCATTAATTAATCTCTTCGGAGTCACCTAGTGCAG | 8470 fluorescence intensity (a.u.)
22 | TGCCACGTTCCCGTGTCGTTTTGCTCCTCACCCGCGATCTCGGAGTCACCTAGTGCAG | 8960 fluorescence intensity (a.u.)
23 | TGAATGGATTTGTCTCTGGCCTCCGGGTACATCTGAACATCGGAGTCACCTAGTGCAG | 8610 fluorescence intensity (a.u.)
24 | CTTCGTTTCGGTTGGGTTGACTGATGCGCCTATGGTTTTGCGGAGTCACCTAGTGCAG | 9830 fluorescence intensity (a.u.)
25 | AATTTCTACTGTCATGCTTCCTTGTCCCATTACTACATTGCGGAGTCACCTAGTGCAG | 8450 fluorescence intensity (a.u.)
26 | ACGTTTTTTATAGGTGAGGGTGGGAGGTGTTTTATATATACGGAGTCACCTAGTGCAG | 16300 fluorescence intensity (a.u.)
27 | GGATATATTTTTCACCCTCAGTGATATTCTCTCTTTTTTACGGAGTCACCTAGTGCAG | 8150 fluorescence intensity (a.u.)

Rewritten field by field: entries from further up
TTTTGCTTTACACTTTATTTGCTTGCATCTTCATTTTTTTCGGAGTCACCTAGTGCAG
  binding signal: 10600 fluorescence intensity (a.u.)
AACTCCTACTCTACTGTACTCACAGTTGCACGGCTCAGAACGGAGTCACCTAGTGCAG
  binding signal: 9340 fluorescence intensity (a.u.)
ATGTGGATTTGGGGTTCAATTTGACGATATGCATACCACTCGGAGTCACCTAGTGCAG
  binding signal: 8390 fluorescence intensity (a.u.)
ATAATAAGCCACTTCTTTCTTATGTGTTTCAATTCTCTTGCGGAGTCACCTAGTGCAG
  binding signal: 8600 fluorescence intensity (a.u.)

More records.

Row | Sequence | binding signal
28 | ATATATATATATATATATATATATATATATATGTATGTATCGGAGTCACCTAGTGCAG | 10100 fluorescence intensity (a.u.)
29 | GATACCCTCGGCGGAGGAAAACGTTGGGTTGGGTCAATCACGGAGTCACCTAGTGCAG | 11300 fluorescence intensity (a.u.)
30 | GTCGCGCCGCGCGCGGTTCCCTTTCACCCGCTCGGTCCAACGGAGTCACCTAGTGCAG | 8640 fluorescence intensity (a.u.)
31 | CGCACACCCAATGGATTCCTCATCTCGTGACCTCGCGCCACGGAGTCACCTAGTGCAG | 10200 fluorescence intensity (a.u.)
32 | GAGCATTTGGTGATCACATCCTCCTGCAAATGGGTTGATTCGGAGTCACCTAGTGCAG | 8290 fluorescence intensity (a.u.)
33 | GGTGGTGGTGGCCTCTTCTTCCTCCTCCGCGGCCGGGGACCGGAGTCACCTAGTGCAG | 15600 fluorescence intensity (a.u.)
34 | ACCTTTTTTCCGACCTTCTTTGTCAGGCCAAATGCAAAGTCGGAGTCACCTAGTGCAG | 8670 fluorescence intensity (a.u.)
35 | CACACGACGTCCACCAACACCAAAGCCGCCGCTTGTTTTCCGGAGTCACCTAGTGCAG | 9790 fluorescence intensity (a.u.)
36 | TGCAATAGCCTGGTGTCGATTTTATGGTCTTGTCGCTCAACGGAGTCACCTAGTGCAG | 8120 fluorescence intensity (a.u.)
37 | ACCATACATACTCACGTACAATTTTCTCAGTTAGCCCTGTCGGAGTCACCTAGTGCAG | 11300 fluorescence intensity (a.u.)
38 | AATTTTTACTCGTACTCTTAACTATCACACATATCTATAACGGAGTCACCTAGTGCAG | 8200 fluorescence intensity (a.u.)
39 | GCAGCATTCAATCAGTCAACACAGGTGTTCTAGCCATATACGGAGTCACCTAGTGCAG | 9400 fluorescence intensity (a.u.)
40 | TGCCATCTTTGTACTGTTCCAGTGTTTCTACTCCTCTTGCCGGAGTCACCTAGTGCAG | 8090 fluorescence intensity (a.u.)
41 | TTTTCCACATTAGTACTCTATACATATGTCAAACATTTAACGGAGTCACCTAGTGCAG | 9080 fluorescence intensity (a.u.)
42 | GGGGATTGGGAGTTTACACGAGGGAATTGATGATGAGATTCGGAGTCACCTAGTGCAG | 9070 fluorescence intensity (a.u.)
43 | AATATTCTCCCGTCGAGATCCGTATATGCTGTTGCCTACTCGGAGTCACCTAGTGCAG | 8600 fluorescence intensity (a.u.)
44 | GTGTATGGGGTCTGATTGCTTTGAGGCTTGCAGATGATGACGGAGTCACCTAGTGCAG | 9770 fluorescence intensity (a.u.)
45 | GGGGCATGGAGAGGATAGCAATCTTGACCTTCGTTTTCTCCGGAGTCACCTAGTGCAG | 8440 fluorescence intensity (a.u.)
46 | ATTTGTTCCATTGCTTCTTCTCTTGATCACTTGCTACCTCCGGAGTCACCTAGTGCAG | 11900 fluorescence intensity (a.u.)
47 | TTGCATCAGAGTTTCATCTCATCTATCGATCGGCTAATTTCGGAGTCACCTAGTGCAG | 10300 fluorescence intensity (a.u.)
48 | GTCGCTGCTTCTCCGCCCGTCCGCTAGCTACTTTTCCACCCGGAGTCACCTAGTGCAG | 11900 fluorescence intensity (a.u.)
49 | CACATGCTTATACCGTTCGTGCTGGAGTTCCTGATCGATGCGGAGTCACCTAGTGCAG | 8070 fluorescence intensity (a.u.)
50 | CTGGTCCTTTATCTTTCAGTGCCATGTCAGTATCTTGTCACGGAGTCACCTAGTGCAG | 8870 fluorescence intensity (a.u.)
51 | GGTCAGTTTGTTTCGTTGCAAGGATATTGACCCATCATTCCGGAGTCACCTAGTGCAG | 9560 fluorescence intensity (a.u.)
52 | GATGTCCGCCGCCGCCGCCTCCGCCTCTGCCTCCTCCTTCCGGAGTCACCTAGTGCAG | 8500 fluorescence intensity (a.u.)
53 | ACTGCTAGCTCCATCCATCTCCATCGAGATGTGTTGAATTCGGAGTCACCTAGTGCAG | 8200 fluorescence intensity (a.u.)
54 | TATGGTGCGCCCCACATGCCAGCCGATTTTCTTTCTTGCTCGGAGTCACCTAGTGCAG | 9760 fluorescence intensity (a.u.)
